The exact form of at least one protein or probe is not confirmed. Tags and fusion partners may be left off the protein sequences shown.
Test system: T1, His6-AmtR (Mycobacterium smegmatis)
T1 sequence (looked up, limits assumed): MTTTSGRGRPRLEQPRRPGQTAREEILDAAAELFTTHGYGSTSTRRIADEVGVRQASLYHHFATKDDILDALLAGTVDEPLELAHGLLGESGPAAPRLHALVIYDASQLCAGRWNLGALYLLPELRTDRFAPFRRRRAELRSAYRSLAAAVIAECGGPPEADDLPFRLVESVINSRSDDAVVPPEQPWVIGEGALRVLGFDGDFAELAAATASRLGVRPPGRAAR
Assay: EMSA
Details: 5 mM MgCl2, 2 ug sperm DNA, urea and amino acids 0.5-5 mM had no influence; GlnR: DIG Gel Shift Kit (Roche) buffer, 6% native PAGE, 0.5x TBE; AmtR: 20 mM Tris-HCl pH 7.9, 25 mM KCl, 1 mM DTT, 5 mM MgCl2, 0.5 mg/ml BSA, 5% glycerol; recombinant protein; label: 5'-32P; probe letters rebuilt from the primers and the genome

“CGGCGAACGACTCGAACCGGCCGAGCCGGCGATGCAGTTGTTGGTCGTAACCGAACTCCGCGAGGTCGCGGTGGTCGCCGGACGGGTCGGCCACGTCGGGTCCCGGTGCTGTTGCGCTGCTGGTCATGGGTTTTCTCTCTGGCTAGGGGCGCTGCCGCCAGCTCTTACCTGTCAGATGACAGATAACAATGGGCGCGTGTCCTCGGCGTCACCCGAATGTTTCGTTCATGTAGCCGTCGGTAAGCATTCGGTTGCAGAACCCTCACCGCCCGTGGGCCTGTCACAATCGCCGGTATGCCCGCCCCCGACCTCGTGCAGCGCCACATCGACGCGGCGACCTCGGTGGCCGGTCTGCGCGCCGCCACGGCCGAACTGCCCGCGGCTGCGCGCGAACTCGTCGGCGCGCGTGCCGCGACGGTGGCACATGCGTGGTCGGC (double strand) [msmeg_2184 promoter (AmtR probe)]”: binds.
